Experimental data reported in PMC4285172.
Results are given in words; binding and its absence hold for the method and conditions named. In cells and extracts the contact can be indirect. Some binding calls cover weakened binding; strength is not graded here.

Chains of the proteins cited; added tags and fusions are not shown. Residues count along the entry.
UniProt Q9QUN7, residues 25-784: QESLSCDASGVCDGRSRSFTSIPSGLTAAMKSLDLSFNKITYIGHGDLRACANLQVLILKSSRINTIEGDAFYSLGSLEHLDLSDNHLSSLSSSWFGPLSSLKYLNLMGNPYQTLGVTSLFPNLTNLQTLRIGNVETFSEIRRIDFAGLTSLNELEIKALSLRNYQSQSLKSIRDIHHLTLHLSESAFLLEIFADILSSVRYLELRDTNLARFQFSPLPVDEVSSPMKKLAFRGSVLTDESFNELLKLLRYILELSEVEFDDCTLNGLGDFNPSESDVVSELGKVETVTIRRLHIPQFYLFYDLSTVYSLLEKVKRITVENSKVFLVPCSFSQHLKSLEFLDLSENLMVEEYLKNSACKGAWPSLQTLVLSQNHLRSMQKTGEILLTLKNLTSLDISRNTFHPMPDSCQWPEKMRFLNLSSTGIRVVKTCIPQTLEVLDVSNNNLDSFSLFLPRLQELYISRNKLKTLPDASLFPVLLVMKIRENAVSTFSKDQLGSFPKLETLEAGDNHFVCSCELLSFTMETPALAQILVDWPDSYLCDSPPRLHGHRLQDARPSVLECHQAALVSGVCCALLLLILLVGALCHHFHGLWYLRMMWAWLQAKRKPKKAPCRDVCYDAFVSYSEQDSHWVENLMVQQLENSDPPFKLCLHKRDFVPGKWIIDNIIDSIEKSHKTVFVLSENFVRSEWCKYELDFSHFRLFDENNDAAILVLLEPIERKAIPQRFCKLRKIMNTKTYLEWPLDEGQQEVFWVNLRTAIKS
UniProt Q9QUK6, residues 26-835: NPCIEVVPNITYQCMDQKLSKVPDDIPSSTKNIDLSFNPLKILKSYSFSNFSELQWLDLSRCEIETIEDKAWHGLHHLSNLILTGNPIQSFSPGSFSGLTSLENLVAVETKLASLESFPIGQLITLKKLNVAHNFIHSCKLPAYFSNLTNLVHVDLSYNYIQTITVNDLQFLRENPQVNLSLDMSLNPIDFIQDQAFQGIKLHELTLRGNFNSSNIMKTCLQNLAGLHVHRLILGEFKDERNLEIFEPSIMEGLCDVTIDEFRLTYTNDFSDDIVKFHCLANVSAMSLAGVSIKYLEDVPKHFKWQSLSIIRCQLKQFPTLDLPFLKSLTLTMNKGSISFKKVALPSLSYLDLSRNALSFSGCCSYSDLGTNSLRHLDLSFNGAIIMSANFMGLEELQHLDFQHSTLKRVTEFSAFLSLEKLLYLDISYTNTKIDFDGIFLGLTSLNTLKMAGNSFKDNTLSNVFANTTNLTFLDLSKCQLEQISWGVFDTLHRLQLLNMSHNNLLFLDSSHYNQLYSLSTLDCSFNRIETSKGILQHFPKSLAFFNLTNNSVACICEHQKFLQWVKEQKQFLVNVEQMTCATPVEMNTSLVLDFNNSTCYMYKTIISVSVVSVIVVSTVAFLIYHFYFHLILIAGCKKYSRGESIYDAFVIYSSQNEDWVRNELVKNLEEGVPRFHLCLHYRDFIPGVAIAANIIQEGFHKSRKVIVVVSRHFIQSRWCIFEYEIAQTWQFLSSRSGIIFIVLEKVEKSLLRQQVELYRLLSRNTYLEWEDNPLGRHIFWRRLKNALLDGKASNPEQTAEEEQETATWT

Assays:
[1] = biological target: Toll-like receptor (TLR)-2 (mouse (endogenous in BMDMs from C57BL/6 mice)) (UniProt Q9QUN7); assay: condition: only macrophages treated with vLPS (1 μg/ml); co-IP; BMDMs treated with vLPS (1 μg/ml) without cytochalasin-D; lysed with 1% Triton X-100, 10 mM Tris-HCl pH 7.4, 150 mM NaCl, 1 mM EDTA pH 8.0; TLR-2 immunoprecipitated overnight with anti-TLR-2 and protein A Sepharose, TLR-4 detected by immunoblot
[2] = biological target: Toll-like receptor (TLR)-2 (mouse (endogenous in BMDMs from C57BL/6 mice)) (UniProt Q9QUN7); assay: co-IP; BMDMs untreated, treated with avLPS (1 μg/ml), or treated with vLPS (1 μg/ml) in presence of cytochalasin-D (1 μg/ml); lysed with 1% Triton X-100, 10 mM Tris-HCl pH 7.4, 150 mM NaCl, 1 mM EDTA pH 8.0; TLR-2 immunoprecipitated overnight with anti-TLR-2 and protein A Sepharose, TLR-4 detected by immunoblot

With “Toll-like receptor (TLR)-4 (from UniProt Q9QUK6 26-835)” the binding [1] was “no binding” and the binding [2] was “binds”.
